## Results from one PubChem assay

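Genome-wide siRNA knockdown in TC32 Ewing sarcoma cells, comparing luciferase light from an NR0B1-promoter reporter with a CMV-promoter reporter 48 hours after transfection. Each siRNA was applied at 20 nM. A z-score of the log NR0B1-over-CMV signal, less the median of siRNAs with the same seed; more negative means a stronger specific loss of the NR0B1 reporter.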

This is part of the screen; most of the strongest results are not listed here. Sequences are the guide (antisense) strand, without overhang.

With AUAGGUGAGAGUGUAGACG against DIP2A the assay gave seed-corrected z-score 1.084. Result for UUUGACAACAAGGUUCACC against OR5D18 was seed-corrected z-score 0.133. UCUCUCUAAAUUUUCCUUC against MRPL47 read seed-corrected z-score 0.1266. With AGCUGAAAGAGAUUAAGCC against PMS2P2 the assay gave seed-corrected z-score 0.1975. For UGACAGAUGAGAAGCACGC against OR4C15 the result was seed-corrected z-score -0.9201. With UAGCAGAUCACCUCGAAGC against CFAP99 the assay gave seed-corrected z-score -1.42. For UAUUAUGUGAUCCAGGUUC against DFFB the result was seed-corrected z-score -0.0685.

With UUCGGAUAAUAUUUUGUUC against PTF1A the assay gave seed-corrected z-score 0.03557. With ACGGUAAUCACUGCAUUGG against HSPA1L the assay gave seed-corrected z-score 0.05124. For UUCUAUGCUAUUUGCAUGC against SLC4A8 the result was seed-corrected z-score 0.5566. With UGAACUUAUAGGAUCGGUU against C20orf195 the assay gave seed-corrected z-score 0.2924. UGCCUGAUUAAAAUUGUGG against PCBD2 read seed-corrected z-score -0.1755. For UAUCGAGAAAGAAUACACC against UBE2E1 the result was seed-corrected z-score -0.5248. With AAGAUUCAAGUCCAUAUUC against VSTM2L the assay gave seed-corrected z-score 0.925.

AAAUUGAGCUCUAUCAUGC against TTC39C read seed-corrected z-score -0.4083. With UUCAGGACCAUGGGCAGCU against SPPL2B the assay gave seed-corrected z-score -0.03783. With UGCAGUAAAUGUUAAUCCC against ZRANB3 the assay gave seed-corrected z-score 0.8627. UUGACUUUGAACGACCGCC against ZNF275 gave seed-corrected z-score -0.9533. UAACUGAUAACUAACAGGA against CNPY1 gave seed-corrected z-score 0.4779. UUCUUUCCAAACAAUACAC against KLRF1 gave seed-corrected z-score -1.979. UAGGGUAAGGGCACUUCCC against UNC5B-AS1 gave seed-corrected z-score -0.2154.

AACAAAGUUAUUGUCAUUC against TFPI2 gave seed-corrected z-score 0.146. With UUGGGAUUGCGGAUCAUCU against EPHB2 the assay gave seed-corrected z-score -0.05715. For AGAGGUAAACUUCCUGUCC against TBC1D25 the result was seed-corrected z-score -0.1395. With UGUAGAUCAACCAUCAUUG against RANBP6 the assay gave seed-corrected z-score -0.1387. UUUGUAACUAACUCCGGUC against NAA25 read seed-corrected z-score 0.02044. Result for AAUAAAUCAAAAGCUGUCC against INTS6 was seed-corrected z-score -0.5809. UGAGUUGAAAAAUGUCAGU against ALDH1L1 read seed-corrected z-score -0.0756.

The first 3 entries again:

| strand | target gene | seed-corrected z-score |
|---|---|---|
| `AUAGGUGAGAGUGUAGACG` | DIP2A | 1.084 |
| `UUUGACAACAAGGUUCACC` | OR5D18 | 0.133 |
| `UCUCUCUAAAUUUUCCUUC` | MRPL47 | 0.1266 |

Data taken from PubChem BioAssay AID1159506, deposited by NCATS (2015).